According to publication PMC10163288:
The list shows a part of the results.

B1: il2ra_site2_3nfp_normal_mot_HHH_b1_00660_af2_000000090_0001_40_57_H_._HHH_b1_07965_0001_0000200016_0000001_0_af2pred_0001_1_af2pred_swapped (protein)
chain: SSSSSSREEVEELLKEAQELLERGNPEEAERVVREAATVAVELNDHELFAAVSRLLERILSSSSS
B2: il2ra_site2_2erj_sap_25_mot_HHH_b2_03871_000000240_0001_40_57_H_._ems_p1-15H-GBL-16H-GABBL-16H_0175_0001_0001_0002_0001_0000900032_0000001_0_0001 (protein)
chain: SSSSSEAEEAFRKAEELVEEGNYEEAAAIAASAMHLALEEGDEELERRIRELYAELAEELVSSSS
B3: il2ra_site1_3nfp_sap_18_mot_HHH_b1_00258_000000025_0001_42_56_H_._HHH_b1_07363_0002_0000300028_0000001_0_0001_af2pred_0001_af2pred_swapped (protein)
chain: SSSSTDEVLELLRILLELAKEGDEEKFEEVLEELEELAEKHNDKLAERLVKQARRFEKLHSSSSS
B4: il2ra_site1_2b5i_normal_mot_HHH_b2_04910_000000118_0001_1_19_H_._HHH_b2_02106_af2_0001_0000300030_0000001_0_af2pred_dldesign_0_af2pred (protein)
chain: SSSSSAETKEARRLFLEANELKQAGKYEEALEKLKKAKELAEKGGANLLAKMIELAIENLESSSS
B5: il2ra_site1_3nfp_normal_mot_HHH_b1_04049_af2_000000244_0001_42_55_H_._d1fb33ed66649044859e967e86ea168f_0001_af2_0001_0000200005_0000001_0 (protein)
chain: TKEKAIEDIIRALKQLPDPEVRELAEEAEELLENGDPEEALKVLKEAAKLLGDPVLEKLIEQYLT
B6: il2ra_site2_3nfp_sap_19_mot_HHH_b1_07498_000000011_0001_1_19_H_._1a4252fcbf463328b814843e80ab038b_0001_0001_0000900006_0000001_0_0001 (protein)
chain: SSSSDKHEEYVRAAIAAIRRALEDGDPEAAERLVRIAILAARDIRNPELEKELEELLEELSSSSS
B7: il2ra_site1_1z92_normal_mot_7f39e2d7389de0c2f60e905c27398b6a_0001_1_000000104_0001_37_51_H_._b993f726e2a1b23aaa9ca63207d855c5_0001_0001_0000100001_0000001_0_af2 … (protein)
chain: GEEEVENAERFAGGDPEKFVRLVLRLLRASGELSPEELKELEEKLRELLKRDPEKAKELAEELLH
B8: il2ra_site1_2b5i_normal_mot_HHH_b2_08262_af2_000000095_0001_1_15_H_._HHH_b2_08088_0001_0000400021_0000001_0 (protein)
chain: SSSSSDEEVEELFLEASRAFRKGNPEEAEELLEEALRLARELGDPRSAEDIEQMLRRLKSSSSSS
B9: il2ra_site2_3nfp_sap_18_mot_HHH_b2_02902_af2_000000043_0001_44_57_H_._HHH_b2_05654_0001_0000100001_0000001_0_0001_af2pred_0001_1_af2pred_swapped (protein)
chain: SSSSSDEEEEEVERLLEEAKHTEDEHEVFALLSAALEIALKAGDEELERRVRELSHKLLESSSSS
B10: il2ra_site1_1z92_sap_8_mot_6e12af4a48b4634929ba45889b8be782_0001_af2_000000007_0001_36_50_H_._HHH_b2_01103_0001_0000200009_0000001_0_0001 (protein)
chain: SSSSDRLEKALRIAVRVAVEAAGLSPEQQEELEELARELAERGVDPLEAIKILDKRALELSSSSS
B11: il2ra_site2_2erj_normal_mot_c2bf78bdce995293a161f7082e24b401_0001_af2_000000082_0001_17_32_H_._HHH_b2_07485_0001_0000200012_0000001_0 (protein)
chain: SSSSSEEEEEIEKLIRELEEAIERGDLEEAYRLANRALHLISKLGDEELQELLSETLERASSSSS
B12: il2ra_site1_2b5i_sap_10_mot_HHH_b2_07920_000000157_0001_21_37_H_._HHH_b2_04490_0001_0000100001_0000001_0_0001_af2pred_dldesign_0_af2pred (protein)
chain: SIEDVISEVIEKGLLDEDEEAELLRLVVDLIYKKDPRLEEYKKKLQEAVEKEDGELVRKIIEELK
B13: il2ra_site2_2erj_sap_23_mot_dcd9809507f71d420582ead1f1e1bbb3_0001_000000226_0001_37_50_H_._84744eca03b61d784461fbba3329deeb_0001_0001_0001000036_0000001_0_0001 (protein)
chain: DDERLIERYIELQAELAGVPQFEVELENNTITVHVDGDDEAARLLLEAVRHALEALGIPFEVTEK
B14: il2ra_site1_3nfp_sap_19_mot_HHH_b1_00333_af2_000000057_0001_25_41_H_._7e097e0b0376360e4b772b7e6a761d91_0001_af2_0001_0000200009_0000001_0_0001 (protein)
chain: DIRKLIQFIAEKDNVPPEEAAEWLVKSWEKTAKVPPEEAIKVLIERAREAGDPEIVEVLEELLRK
B15: il2ra_site2_2erj_normal_mot_9f5b7fc4e9d6b3037bff8dd1fb84ce76_0001_000000082_0001_16_32_H_._HHH_b2_05667_0001_0000100006_0000001_0_af2pred_0001_1_af2pred_swapped (protein)
chain: SSSSSSSEVEEEVERLLEEAERIPDPKKARKLLVRAHYVARKNNNDELKELVHKVDEELSSSSSS
B16: il2ra_site2_2erj_normal_mot_HHH_b1_05749_af2_000000010_0001_23_39_H_._HHH_b1_03892_af2_0001_0000400015_0000001_1 (protein)
chain: SSSSDERLRQLYELAVELLRLLFEGDEERIEELLREVRELAEELQSDVARELVEEVEKKLSSSSS
B17: il2ra_site1_2b5i_normal_mot_HHH_b2_02740_000000236_0001_1_21_H_._HHH_b1_04624_0001_0000400027_0000001_0_1_af2pred_dldesign_0_af2pred (protein)
chain: SSSSSLRREAVETVEALLKAGKTDEAREVVDELRRLAEERQDPSLLRLVDFLEEAIEIAEESSSS
B18: il2ra_site1_2b5i_sap_9_mot_HHH_b1_06948_af2_000000176_0001_3_20_H_._HHH_b1_01234_0001_0000100007_0000001_0_0001_af2pred_dldesign_0_af2pred (protein)
chain: SSSSSRREILEEVEELYKQAKTDEQQELVEEGYKKILAAIRKGDLEGARKLLEELKEKLESSSSS

molecular target: il2ra, P01589; assay: yeast display titration

Apparent Kd, inactive:
B1 no binding seen, B2 no binding seen, B3 no binding seen, B4 no binding seen, B5 no binding seen, B6 no binding seen, B7 no binding seen, B8 no binding seen, B9 no binding seen, B10 no binding seen, B11 no binding seen, B12 no binding seen, B13 no binding seen, B14 no binding seen, B15 no binding seen, B16 no binding seen, B17 no binding seen, B18 no binding seen
